# About 1,200 (0.34%) of roughly 350,000 compounds were called active. The inconclusive results got no clear call from the source; some entries with a clear call stand among them for comparison. Calls come from the whole dose curve; as a rule, active = well fitted inhibition curve with a large enough effect; inconclusive = small, poorly fitted or top-dose-only effect; inactive = no such curve, though single readings can be large or run the other way. A potency beside an inconclusive call is a rough fit, not a confirmed value. Non-standard residues stand in square brackets, D forms with d. Residues, ends and D or L forms follow the SMILES beside them. pGlu = O=C1CC[C@@H](C(=O)O)N1
# Sequences of proteins named here, by UniProt entry; tags and fusion partners are left off.
# UniProt P27695, whole entry, looked up: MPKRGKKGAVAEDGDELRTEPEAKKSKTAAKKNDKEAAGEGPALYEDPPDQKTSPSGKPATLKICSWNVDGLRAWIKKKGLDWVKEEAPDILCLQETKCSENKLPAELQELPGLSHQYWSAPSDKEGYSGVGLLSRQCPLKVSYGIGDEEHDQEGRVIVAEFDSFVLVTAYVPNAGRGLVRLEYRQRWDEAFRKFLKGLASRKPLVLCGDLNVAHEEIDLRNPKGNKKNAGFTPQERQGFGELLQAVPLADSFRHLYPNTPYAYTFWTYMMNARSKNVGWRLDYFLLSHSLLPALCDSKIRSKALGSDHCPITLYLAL
# Biological target: DNA repair nuclease/redox regulator APEX1 (Homo sapiens) (UniProt P27695)
# Test: qHTS Assay for Inhibitors of the Human Apurinic/apyrimidinic Endonuclease 1 (APE1); note: nearly all actives have a fitted effect of over 55% in size;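 for activity change, negative = inhibition: plate controls were vehicle for no effect and reference inhibitor for full effect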
# Details: recombinant APE1, TAMRA/BHQ-2 abasic DNA cleavage fluorescence; activity change, negative = inhibition: at 65.8 µM (top of the series)
# In short: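 APE1 at 0.75 nM preincubated 15 min at room temperature with compound. Reaction then started with 50 nM double-stranded THF-abasic substrate labelled with TAMRA/BHQ-2, and 525/598 nm fluorescence read kinetically. Activity taken as third-minus-first read difference, normalized to DMSO and NSC13755 controls.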
# Potency is the fitted concentration of half-maximal effect.
SMILES,"activity change, negative = inhibition",Potency
CCc1n(CC(O)COCc2ccccc2)c2ccccc2[n+]1C (configuration not stated),inactive: 12.5%,
CCCC[C@H](NC(=O)[C@H](CO)NC(=O)[C@H](Cc1ccc(O)cc1)NC(=O)[C@H](CO)NC(C)=O)C(=O)N[C@@H](CCC(=O)O)C(=O)N[C@@H](Cc1cnc[nH]1)C(=O)N[C@H](Cc1ccccc1)C(=O)N[C@@H](CCCNC(=N)N)C(=O)N[C@@H](Cc1c[nH]c2ccccc12)C(=O)NCC(=O)N[C@@H](CCCCN)C(=O)N1CCC[C@H]1C(=O)N[C@H](C(N)=O)C(C)C,inactive: -6.19%,
CC[C@H](C)[C@@H](NC(=O)O[C@H]1C(=O)c2cc(OC)ccc2O[C@@H]1c1ccc(OC)c(Br)c1)C(=O)OC,,"inconclusive: 3.55 µM [inhibitor, single point]"
CN(C(=O)c1ccc(NC(=O)Cc2ccc(NC(=O)C3CCCN(C(=O)C4CCC4)C3)cc2)cc1)C1CC1 (configuration not stated),inactive: 18.5%,
COc1ccc([N+](=O)[O-])cc1NC(=O)COC(=O)/C=C/c1ccco1,,"inconclusive: 15.8 µM [inhibitor, single point]"
CC(C)(C)c1ccc(NC(=O)NCc2ccco2)cc1,,"inconclusive: 56.2 µM [inhibitor, partial curve, poor fit]"
COc1ccc(/C=N/NC(=O)c2ccccc2O)cc1CSc1ccccn1,,"inconclusive: 10 µM [inhibitor, single point]"
Cc1cc(C)cc(CC(Cc2nc3ccccc3[nH]2)c2nc3ccccc3[nH]2)c1 (configuration not stated),,"inconclusive: 39.8 µM [inhibitor, single point]"
CC(C)CCOc1ccc(N)cc1,inactive: -5.75%,
O=C(CCCC(=O)OCC(F)(F)C(F)F)Nc1ccc(NC(=O)CCCC(=O)OCC(F)(F)C(F)F)cc1,,"inconclusive: 44.7 µM [inhibitor, single point]"
COc1ccc(Cn2c3nc4ccccc4nc3c3c(=O)n(Cc4ccco4)cnc32)cc1,,"inconclusive: 39.8 µM [inhibitor, single point]"
CN(C)S(=O)(=O)c1ccc(C(=O)Nc2ccccc2[N+](=O)[O-])cc1,,"inconclusive: 0.02 µM [inhibitor, full curve, poor fit]"
CC(C)c1ccc2c(c1)c(SC(C)(C)C)c(CC(C)(C)C(=O)O)n2Cc1ccc(Cl)cc1,,"inconclusive: 20 µM [inhibitor, single point]"
COc1ccc(CCC(=O)N2CC(C)OC(C)C2)cc1 (configuration not stated),inactive: 2.82%,
Cc1ccc(NCc2ccccc2OCc2ccccc2F)cc1,inactive: -10.4%,
COc1ccccc1C1NC(=O)NC(C)=C1C(=O)OC1CCCCC1 (configuration not stated),,"inconclusive: 12.6 µM [inhibitor, partial curve, poor fit]"
O=C1C=CC(=O)C2=C1C1c3ccccc3C2c2ccccc21,inactive: -5.33%,
Cc1cc(C)nc(SCc2ccc(C(=O)NN=C3C4CC5CC(C4)CC3C5)cc2)n1,,"inconclusive: 6.31 µM [inhibitor, full curve]"
COc1cccc(NC(=O)COC(=O)/C=C/c2ccc(Cl)cc2Cl)c1,,"inconclusive: 22.4 µM [inhibitor, single point]"

# Whole records as entered above:
# `COc1ccc([N+](=O)[O-])cc1NC(=O)COC(=O)/C=C/c1ccco1` in the list: Potency: inconclusive: 15.8 µM [inhibitor, single point]
# `COc1ccc(CCC(=O)N2CC(C)OC(C)C2)cc1` (configuration not stated) in the list: activity change, negative = inhibition: inactive: 2.82%

# Additional results

SMILES,"activity change, negative = inhibition",Potency
O=C(COC(=O)/C=C/c1ccc(F)cc1)Nc1nnc(-c2ccccc2)o1,inactive: -31.7%,
CCCCn1c(NC(=O)c2ccccc2Cl)c(C#N)c2nc3ccccc3nc21,,"inconclusive: 35.5 µM [inhibitor, partial curve]"
Cc1cc(NC(=O)c2cncc(Br)c2)no1,,"inconclusive: 39.8 µM [inhibitor, single point]"
O=c1ccn([C@@H]2O[C@H](COP(=O)(O)OP(=O)(O)OP(=O)(O)O)[C@@H](O)[C@H]2O)c(=O)[nH]1,,"inconclusive: 2.82 µM [inhibitor, full curve, poor fit]"
CC(C)C[C@H](NC(=O)[C@H](Cc1ccccc1)NC(=O)[C@@H]1CCCN1C(=O)[C@H](CC(=O)O)NC(=O)[C@@H]1CCC(=O)N1)C(=O)N[C@@H](CCCN=C(N)N)C(=O)N[C@@H](Cc1ccccc1)C(N)=O ([pGlu]DPFLRF-NH2),,"inconclusive: 7.08 µM [inhibitor, single point]"
COC(=O)NC(/C=C/c1ccccc1)[C@]1(C(C)=O)CCCC1=O (some centres not stated),,"inconclusive: 3.55 µM [inhibitor, single point]"
CCOC(=O)C1(C(F)(F)F)N=C(c2cccnc2)OC(N2CCCCC2)=N1 (configuration not stated),,"inconclusive: 20 µM [inhibitor, partial curve, poor fit]"
CCOC(=O)C(C)Oc1cccc2c(=O)n(CC(=O)Nc3cccc(OC)c3)ccc12 (configuration not stated),,"inconclusive: 12.6 µM [inhibitor, partial curve, poor fit]"
CCOc1cc(/C=C2\NC(=S)N(c3c(C)n(C)n(-c4ccccc4)c3=O)C2=O)ccc1O,,"inconclusive: 44.7 µM [inhibitor, single point]"
Cc1cc(C)n(CC(O)COc2ccc3ccccc3c2)n1 (configuration not stated),,"inconclusive: 3.16 µM [inhibitor, single point]"
CCOC(=O)C1(CCOc2ccccc2)CCN(Cc2ccc(COC)o2)CC1,,"inconclusive: 3.55 µM [inhibitor, partial curve]"
COc1cccc(-c2ccc3ncnc(NCCc4c[nH]c5ccc(OC)cc45)c3c2)c1,,"inconclusive: 39.8 µM [inhibitor, single point]"
COC(=O)[C@@H](NC(=O)Nc1cccc(OC)c1)C(C)C,,"inconclusive: 10 µM [inhibitor, single point]"
COc1ccc(C)cc1S(=O)(=O)N(C)CC(=O)N1CCC(C(N)=O)CC1,,"inconclusive: 22.4 µM [inhibitor, single point]"
CC1CCCC(C(=O)O)N1C(=O)CCSSCCC(=O)N1C(C)CCCC1C(=O)O (configuration not stated),inactive: -2.3%,
CCOC(=O)c1c(CSc2ccccc2)oc2ccc(O)cc12,,"inconclusive: 31.6 µM [inhibitor, single point]"
Cc1cc(/C=N/NC(N)=O)c(C)c(CO)c1,,"inconclusive: 0.199 µM [inhibitor, full curve, poor fit]"
COc1ccc(NCc2ccccc2[N+](=O)[O-])cc1OC,,"inconclusive: 3.55 µM [inhibitor, single point]"
